According to PMC12687436:
No constants are given. Whether binding was seen depends on the method and setting. Binding seen in cells or lysates may run through a third protein. A yes stands for co-enrichment or nearness to the bait. Other partners may have been found. Sequences can lack the tags named with a protein.

Amino acid sequences for entries named in this document (tags omitted).
UniProt P09493: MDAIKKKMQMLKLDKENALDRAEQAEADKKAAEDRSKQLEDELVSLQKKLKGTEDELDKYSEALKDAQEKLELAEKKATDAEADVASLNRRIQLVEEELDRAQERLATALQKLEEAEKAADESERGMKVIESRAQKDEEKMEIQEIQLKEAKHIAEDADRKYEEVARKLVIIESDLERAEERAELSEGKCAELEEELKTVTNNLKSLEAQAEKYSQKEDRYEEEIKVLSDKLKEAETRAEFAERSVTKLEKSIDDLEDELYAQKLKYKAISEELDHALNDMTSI

Molecular target: T1, Tetraspanin 4 (TSPAN4), HA-tagged, overexpressed in VSMCs (UniProt O14817)
T1 sequence: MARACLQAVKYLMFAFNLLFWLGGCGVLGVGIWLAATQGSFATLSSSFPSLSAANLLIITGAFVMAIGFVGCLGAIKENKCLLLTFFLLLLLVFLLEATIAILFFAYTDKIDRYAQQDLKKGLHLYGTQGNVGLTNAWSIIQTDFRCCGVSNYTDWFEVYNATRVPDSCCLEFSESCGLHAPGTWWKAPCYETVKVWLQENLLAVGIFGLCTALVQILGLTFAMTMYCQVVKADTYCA
Assay: affinity purification with mass spectrometry; HA-tag immunoprecipitation from lysates of VSMCs overexpressing HA-tagged TSPAN4 (IP lysis buffer: 150 mM KCl, 25 mM Tris pH 7.4, 5 mM EDTA, 0.5 mM DTT, 0.5% NP-40), overnight at 4°C; IgG antibody as control; SDS-PAGE, Coomassie staining, bands excised for mass spectrometry

Tropomyosin-1 (TPM1) (from UniProt P09493 1-284)
binding: binds
